Record: PubChem BioAssay AID652272 (Drosophila RNAi Screening Center, 2013)

- Purpose: 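Finding fly genes that regulate Hedgehog signal transduction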 (primary screen)
- Cells: Drosophila clone 8 (Cl8) cells
- Reagent: long dsRNA against Drosophila genes
- Read-out: 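Plate reader light from a firefly reporter under a ptc promoter fragment that responds to Hedgehog, with Renilla light as transfection reference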
- Direction: firefly Hh reporter signal: higher = more ptc reporter light; Renilla reference signal: higher = more Renilla control light
- Active means: 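Called a hit if the two-replicate mean z-score lies below -2 or above +3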
- Calls: active = hit: reporter lowered or raised; inactive = not a hit
The screen tested about 21,000 reagents; below is a random part of those with a known target gene and a result. Over the whole deposit, 503 (2.4%) got an active call. 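Raw plate light values, not normalised; calls rest on replicate z-scores that were not deposited; hits include reporter decreases as well as increases.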 Names joined by + are all predicted targets of the reagent. Reagent sequences are not shown. Not stated in the record: the amount of reagent, the time to read-out.

gene	amplicon	firefly Hh reporter signal, replicate 1	firefly Hh reporter signal, replicate 2	firefly Hh reporter signal, replicate 3	Renilla reference signal, replicate 1	Renilla reference signal, replicate 2	outcome
nopo	DRSC06918	98667	53404		4790	2208	inactive
otk2	DRSC07303	70721	52371		1898	3619	inactive
CG13786	DRSC02289	1.61e5	60292		3972	5036	inactive
CG6067	DRSC18399	57168	1.73e5		1747	6608	inactive
CG5639	DRSC15851	69387	96467		2113	1943	inactive
CG10584	DRSC11624	1.18e5	1.63e5		4053	4950	inactive
CG7135	DRSC20026	62768	1.64e5		1448	7270	inactive
cdi	DRSC16922	1.46e5	62957		5259	2636	inactive
CG4822	DRSC00669	1.27e5	1.22e5		4807	3669	inactive
CG13362	DRSC17897	91520	2.00e5		3211	6528	inactive
CG11109	DRSC11633	1.49e5	1.28e5		6312	5059	inactive
CG7248	DRSC10788	57481	57788	65511	4192	4128	inactive
NimB1	DRSC01880	73569	79988		3398	3016	inactive
CG4364	DRSC02742	27491	30070		1725	1645	inactive
Cyp1	DRSC20234	96297	82009		1825	1072	inactive
Atet	DRSC00263	65866	55351		1104	5277	inactive
CG11629	DRSC03695	75173	37840		2058	3923	inactive
alphaTub67C	DRSC11321	15543	75481	66745	6989	4772	inactive
Acam + CG17770	DRSC14110	3.86e5	80727		22437	2674	inactive
Acam + CG17770	DRSC15264	4.17e5	1.17e5		23629	3746	inactive
RpL24-like	DRSC16111	67072	98487		2817	3609	inactive
p38b	DRSC03586	1.19e5	60160		2945	5971	inactive
Pvr	DRSC03080	65338	49424		2704	1613	inactive
CG14377	DRSC14837	1.17e5	1.02e5		4032	3108	inactive

Just “firefly Hh reporter signal, replicate 2”, for 5 of the entries above:
otk2 [DRSC07303]	52371
CG13786 [DRSC02289]	60292
CG6067 [DRSC18399]	1.73e5
CG5639 [DRSC15851]	96467
CG10584 [DRSC11624]	1.63e5

The results go on:
gene	amplicon	firefly Hh reporter signal, replicate 1	firefly Hh reporter signal, replicate 2	firefly Hh reporter signal, replicate 3	Renilla reference signal, replicate 1	Renilla reference signal, replicate 2	outcome
Gmap	DRSC19988	1.67e5	1.04e5		3472	2525	inactive
Gmap	DRSC20057	85400	2.40e5		1958	9424	inactive
cbt	DRSC00655	81586	48434		3385	2416	inactive
nuf	DRSC11379	74164			3955	2224	inactive
Chs2	DRSC11830	70896	1.01e5		2518	2501	inactive
Dnz1	DRSC03317	76733	59440		2978	2257	inactive
Sce	DRSC16825	86098	70022		2212	1907	inactive
dila	DRSC06607	1.69e5	63705		3209	4389	inactive
Hgsnat	DRSC18405	1.14e5	77046		2451	1636	inactive
tal-1A + tal-2A + tal-AA + 1 more	DRSC12992	45339	2.09e5		9894	4515	inactive
CG5323	DRSC06929	1.34e5	64945		3596	5392	inactive
CG31676	DRSC02387	1.33e5	59339		3531	6384	inactive
Nadsyn	DRSC20222	80632	71037		1351	805	inactive
crn	DRSC18184	61052	24172		6844	1572	active
crn	DRSC18185	72804	32759		7443	1829	active
crn	DRSC18755	58037	27078		2704	2544	active
